Measurements from “University of Dundee, Small-Polar-MMV Screening Library” (2021), ChEMBL document CHEMBL3988442.

Results are given as percent effect. The record does not define 0% and 100%; most values in the screen are far below 50% and negative numbers occur (in some assays of this library far below -100). Compounds were drawn at random from those tested, without regard to their results.

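Whole-cell assay for inhibitors of Mycobacterium tuberculosis growth, labelled Cornell in the record; the read-out is not stated. The concentration is filed as 10 mM, unlikely as a test dose, so the dose is not known. The record gives no direction; compounds strong in two other growth screens of this library score well above the rest, so higher reads as stronger inhibition. Size under these conditions: about 53,000 compounds, about 900 of them at 50% or above in at least one test.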

Compound	Percent Effect
Cc1ccc(-n2cc(C)cn2)c(NC(=O)NC2(C)CCOC2)c1 (stereo not shown)	23.78%
Cc1nn(C)c(C)c1NC(=O)CN1CCCC1c1noc(C2CC2)n1 (stereo not shown)	0.2651%
COc1ccc(CN2CCCCCC2c2cccs2)c(O)c1 (stereo not shown)	20.36%
Cc1cc(C)n(CC2CCCN2CC(=O)NC2CCOCC2)n1 (stereo not shown)	-11.13%
Cc1cc(CN(C)C(=O)NC2CCCC2)no1	-57.95%
CN(C)CCNC(=O)c1cc2c(s1)CCN2S(C)(=O)=O	19.41%
N#Cc1ccccc1C(=O)N1C[C@@H](CN2CCOCC2)[C@@H](CO)C1	9.846%
CCS(=O)(=O)N1CCOC2(CCCN(c3ccc(C)nn3)C2)C1.O=C(O)C(F)(F)F (stereo not shown)	11.19%
Cc1nc(Nc2cnccn2)cc(C2CCN(CCO)C2)n1.O=CO (stereo not shown)	-24.26%
O=C(O)C(F)(F)F.[H][C@@]12CNCC[C@]1([H])OC[C@H](C(=O)NCCc1cccs1)C2	-4.239%
Cc1cc(F)ccc1CN1CCCC(O)(CN2CCCC2)C1 (stereo not shown)	22.64%
CN1N=C(C(=O)N(Cc2ccco2)C2CCCC2)CCC1=O	16.88%
CCc1cc(NCCCNS(C)(=O)=O)nc(-c2ccccn2)n1	13.95%
[H][C@@]12CCN(C(=O)c3c(C)noc3C)C[C@@]1([H])O[C@H](c1ccncn1)C2	13.26%
Cc1nn(C)cc1-c1ccnc(N(C)Cc2ccon2)n1	-12.7%
COc1nn(C)c2c1CCCN(C(=O)c1cccc3cccnc13)C2.O=C(O)C(F)(F)F	5.663%
O=C(O)C(F)(F)F.O[C@@H]1CCN(CC2CC2)[C@H]1Cc1ccccc1	-4.043%
[H][C@]12CNCCN1C[C@H](c1ccccc1)[C@H]2C(=O)OCC	-4.109%
CCO[C@@H]1CO[C@@]2(CCN(Cc3ccc4c(c3)OCO4)C2)C1.O=C(O)C(F)(F)F	-12.19%
Cc1ccc(Cn2cc(C)c(N)n2)cc1	-38.28%
CCN1CCC2(CC1)CC(NCc1cccc(C)n1)c1ccccc1O2.O=C(O)C(F)(F)F.O=C(O)C(F)(F)F.O=C(O)C(F)(F)F (stereo not shown)	12.29%
COCCCNc1c(C#N)c2c(c3nncn13)CN(C)CC2.Cl	22.78%
Nc1nccc(N2CCNC(C(=O)NCc3ccccn3)C2)n1 (stereo not shown)	-14.64%
[H][C@@]12C[C@@H](O)C[C@]1([H])CN(C(=O)c1cc(C3CCCCC3)no1)C2	24.89%
Cc1nn(C)c(N(C)C)c1CNCC(O)COc1ccc(F)cc1 (stereo not shown)	-12.35%
CCn1cc2c(n1)CN(Cc1ccc(C)o1)CC2COCC1CC1.O=C(O)C(F)(F)F (stereo not shown)	32.3%
CN1CCN(Cc2ccoc2)Cc2cccnc21	6.434%
O=C(NCCCc1ccncc1)C1CCCN(Cc2ccco2)C1 (stereo not shown)	-0.73%
c1csc(-c2noc(CN3CCc4cncnc4C3)n2)c1	10.59%
O=c1c(Cc2ccccc2)c(O)ccn1CCc1ccccc1	-11.35%
CC(C)N1CC(NC(=O)c2ccc(Cl)s2)CC1=O (stereo not shown)	-20.82%
CN(CCOCC1CC1)C(=O)Nc1ccc([S+](C)[O-])c(F)c1 (stereo not shown)	-10.83%
O=C1CCCN1CCN1CCCCC1Cn1cncn1 (stereo not shown)	-38.29%
CC(=O)N1CCC2(CC1)CN(C)CC[C@H]2C(F)(F)F.Cl	17.18%
Cc1cc(C)nc(Nc2cc(C)nc(C3CCN(C(=O)CO)C3)n2)n1 (stereo not shown)	4.2%
O=C(NCc1cc2n(n1)CCCNC2)C1(c2ccccc2)CCCCC1	-14.74%
CCOC1CC2(CCN(Cc3nccn3C)CC2)C1.O=C(O)C(F)(F)F	-13.67%
[H][C@@]12CCCO[C@]1([H])[C@@H](OC)CN2S(=O)(=O)c1cn(C)cn1	-9.302%
O=C(NCc1cc[nH]n1)NCC(c1ccccc1Cl)N1CCCC1 (stereo not shown)	7.743%
O=C(c1ccc(-c2nc[nH]n2)cc1)N1CC[C@H](CO)[C@@H](O)C1	11.4%
Cc1ccc(C2CCCCCN2Cc2cn(C)nc2C)cc1 (stereo not shown)	-0.2838%
COc1cc(C2(C(=O)N3CCN(CC(C)O)CC3)CC2)ccc1C (stereo not shown)	0.26%
CN(C)[C@@H]1CCN(c2ncc(F)cn2)[C@H]1Cc1cccnc1.O=C(O)C(F)(F)F.O=C(O)C(F)(F)F	21.76%
[H][C@@]12CCN(C(=O)CCc3ccc(OCC)cc3)C[C@]1([H])OCCNC2=O	-18.32%
O=C(O)C(c1cccc2c1OCC2)N1CCC(N2CCCC2)CC1 (stereo not shown)	20.52%
CCOc1ccccc1NC(=O)CN(C)Cc1ccccc1Cl	34.96%
Cc1nc(C)n(C2CCCN(C(=O)Cc3cccnc3)C2)n1 (stereo not shown)	-3.36%
COc1ccc(-n2cccn2)cc1S(=O)(=O)N1C[C@H](C2CC2)[C@@H](N)C1	-1.684%
COCCN1CCC1c1cc(N)nc(C)n1 (stereo not shown)	2.918%
c1ccc(-n2nnnc2CNCc2ccc3c(c2)OCCO3)cc1	14.15%
Cc1cc2c(N3CCC(N(C)Cc4cnn(C)c4)CC3)ncnc2s1	-6.009%
[H][C@]12CCN(Cc3cccs3)[C@@]1([H])C[C@H](C(=O)N1CCOCC1)O2	29.75%
CC(C)c1nc(CC(=O)N2CCN(C)CC2c2ccccc2)cs1 (stereo not shown)	-42.33%
Cc1cc(N(C)C)nc(N2CCn3c(nnc3C(C)C)C2)n1	-11.01%
COc1ncccc1-c1ncccc1NC(=O)C(C)C	-24.02%
Cc1ccc(NC(C)C(=O)NCc2cccs2)cc1Cl (stereo not shown)	9.551%
Cc1ccccc1CN1CCN(Cc2nccn2C)CC1	9.518%
NC(=O)CC1CCCCN1C(=O)Cc1cccc(Br)c1 (stereo not shown)	15.4%
Cn1ncc2c1C(COCC1CC1)CN(Cc1ccoc1)C2 (stereo not shown)	-5.28%
O=C(Cc1cc(F)cc(Cl)c1)N[C@@H]1CCNC[C@H]1O	-7.21%
Cc1cc(C)n(C2CN(Cc3noc(-c4ccccc4)n3)C2)n1	16.77%
Cc1cc(N2CCN(C3CCOCC3)CC(C(=O)N(C)C)C2)ncn1 (stereo not shown)	3.983%
O=c1ccc(-c2cccs2)nn1CN1CCOCC1	22.78%
CC(C)c1cc(C(=O)N2CCC3(CCc4ccccc4C(=O)N3)C2)on1 (stereo not shown)	-0.3327%
COCCOc1ncccc1C(=O)N(C)c1ccc(OC)nc1	31.98%
COc1ccnc(N2CCN(C(=O)N3CCOCC3)CC2)n1	-8.776%
Cc1ncnc2c1CCN(CC1CCOC1)CC2.O=C(O)C(F)(F)F (stereo not shown)	7.182%
COc1nc2ccccc2cc1C1CC(=O)Nc2n[nH]c(C3CCC3)c21 (stereo not shown)	19.22%
COc1ccc(Br)cc1CCC(=O)N1CCC(O)CC1	-15.57%
Cc1cc(C(=O)N2CCC3(C2)CN(c2cccnc2)C(=O)CN3C)[nH]n1.O=C(O)C(F)(F)F.O=C(O)C(F)(F)F (stereo not shown)	16.84%
Cc1nnsc1C(=O)NCc1nn(C2CCCC2)c2c1CCCC2	22.48%
CC(=O)N1CCCC1c1nnc2n1CCCCC2 (stereo not shown)	-20.38%
O=C(NCC(=O)N1CCc2ccccc2C1)c1ccoc1	-20.14%
Cc1cc(CNc2ccnn2CC(C)C)ccc1-n1cncn1	10.62%
CC(C#N)CSc1ccccc1NCC(=O)NC(C1CC1)C1CC1 (stereo not shown)	-44.61%
Cc1ccc(Cl)c(CN2CCC(c3nccn3C(C)C)CC2)c1F	12.16%
Cc1nc(CN2CCC23CCN(C(=O)c2ccco2)CC3)cs1	-15.48%
COc1ccc(CCN2CCCC(CN(C)Cc3[nH]cnc3C)C2)cc1 (stereo not shown)	-4.165%
CCOc1ccc2cc(C(=O)NCCC(=O)N(C)C)[nH]c2c1	-15.2%
Cc1nn(C)cc1CN1CCN(CC2(c3ccccc3)CC2)CC1	18.35%
CCCc1nnsc1C(=O)N1CCN(CC(O)c2ccco2)CC1.Cl (stereo not shown)	36.82%
O=C(c1ccncc1)N1CCC(O)(Cn2ccc3ccncc32)CC1	14.94%
COCc1cnc2n1CCN(C(=O)c1cc3cc(Cl)ccc3o1)C2C (stereo not shown)	-26.54%
Cn1nnc2cc(C(=O)N3CCC(Nc4cccnn4)CC3)ccc21	-29.67%
O=C(O)C(F)(F)F.O=C(O)C(F)(F)F.[H][C@@]12C[C@@H](OCc3ccccn3)CN1CCN(C(=O)c1ccc(F)cc1)C2	-6.457%
Cc1ccc(CN2CCc3c(COC(C)C)nn(C)c3C2)s1.O=C(O)C(F)(F)F	-7.673%
OCc1cc2ccccc2nc1NC1CC=CC1	10.8%

Once more, the final 8:

- Cc1nn(C)cc1CN1CCN(CC2(c3ccccc3)CC2)CC1 : 18.35%
- CCCc1nnsc1C(=O)N1CCN(CC(O)c2ccco2)CC1.Cl (stereo not shown) : 36.82%
- O=C(c1ccncc1)N1CCC(O)(Cn2ccc3ccncc32)CC1 : 14.94%
- COCc1cnc2n1CCN(C(=O)c1cc3cc(Cl)ccc3o1)C2C (stereo not shown) : -26.54%
- Cn1nnc2cc(C(=O)N3CCC(Nc4cccnn4)CC3)ccc21 : -29.67%
- O=C(O)C(F)(F)F.O=C(O)C(F)(F)F.[H][C@@]12C[C@@H](OCc3ccccn3)CN1CCN(C(=O)c1ccc(F)cc1)C2 : -6.457%
- Cc1ccc(CN2CCc3c(COC(C)C)nn(C)c3C2)s1.O=C(O)C(F)(F)F : -7.673%
- OCc1cc2ccccc2nc1NC1CC=CC1 : 10.8%